Laboratory results as given in patent US20220160721A1, “METHODS OF TREATING CANCER” (Epizyme, Inc., priority 2016, published 2022).
Read-outs that look alike come from different tables or passages of the source.

How the values were obtained:
COV362 = experiment: cells; details: COV362, 360 h, read-out: Tazemetostat Day 15 Proliferation IC50
CAOV-3 = experiment: cells; details: Homo sapiens, Caov-3, 360 h, read-out: anti-proliferative IC50
OAW42 = experiment: cells; details: Homo sapiens, OAW-42, 360 h, read-out: Tazemetostat Day 15 Proliferation IC50
[1] = tested on: ovarian cancer cell lines; experiment: cells; details: 360 h, read-out: day 15 IC50 values for ovarian cancer cell lines
PA-1 [2] = details: read-out: Tazemetostat Day 15 Proliferation IC50; PA-1, long term proliferation day 15
ES-2 = experiment: cells; details: Homo sapiens, ES-2, 360 h, read-out: Tazemetostat Day 15 Proliferation IC50
JHOC5 = experiment: cells; details: 360 h, read-out: Tazemetostat Day 15 Proliferation IC50
TOV112D = experiment: cells; details: Homo sapiens, 360 h, read-out: Tazemetostat Day 15 Proliferation IC50
H3K27me3 [3] = experiment: cells; details: 96 h, read-out: Tazemetostat day 4 H3K327me3 IC50
H3K27me3 [4] = experiment: cells; details: Homo sapiens, OAW-42, 96 h, read-out: Tazemetostat day 4 H3K327me3 IC50
TYK-NU = experiment: cells; details: 360 h, read-out: Tazemetostat Day 15 Proliferation IC50
PA-1 [5] = experiment: cells; details: Homo sapiens, PA-1, 360 h, read-out: Tazemetostat Day 15 Proliferation IC50, PA-1, long term proliferation day 15
Bin-67 = experiment: cells; details: 360 h, read-out: Tazemetostat Day 15 Proliferation IC50
TOV21G = experiment: cells; details: Homo sapiens, 360 h, read-out: anti-proliferative IC50
H3K27me3 [6] = experiment: cells; details: OVK18, 96 h, read-out: Tazemetostat day 4 H3K327me3 IC50
OVK18 = experiment: cells; details: OVK18, 360 h, read-out: Tazemetostat Day 15 Proliferation IC50
COV434 = experiment: cells; details: COV434, 360 h, read-out: Tazemetostat Day 15 Proliferation IC50
H3K27me3 [7] = experiment: cells; details: Homo sapiens, PA-1, 96 h, read-out: Tazemetostat day 4 H3K327me3 IC50
COV504 = experiment: cells; details: COV504, 360 h, read-out: anti-proliferative IC50

With `CCN(c1cc(-c2ccc(CN3CCOCC3)cc2)cc(C(=O)NCc2c(C)cc(C)[nH]c2=O)c1C)C1CCOCC1` [tazemetostat] the IC50 (COV362) was greater than 10000 nM, the IC50 (CAOV-3) was less than 10000 nM and the IC50 (OAW42) was greater than 10000 nM. It also gave an IC50 [1] of no less than 73 nM, an IC50 (PA-1 [2]) of 5900 nM and an IC50 (ES-2) greater than 10000 nM. For the same molecule, the IC50 (JHOC5) was greater than 10000 nM, the IC50 (TOV112D) was 340 nM and the IC50 (H3K27me3 [3]) was 16 nM. It also gave an IC50 (H3K27me3 [4]) of 7 nM, an IC50 (TYK-NU) greater than 10000 nM and an IC50 (PA-1 [5]) of less than 10000 nM. The IC50 (Bin-67) was 290 nM, the IC50 (TOV21G) was less than 10000 nM and the IC50 (H3K27me3 [6]) was 32 nM. It also gave an IC50 (OVK18) of 860 nM, an IC50 (COV434) of 73 nM and an IC50 (H3K27me3 [7]) of 40 nM. The IC50 (COV504) was less than 10000 nM.
